PubChem BioAssay AID504744, Drosophila RNAi Screening Center, 2011

Assay: 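Find genes whose loss alters insulin-driven dAkt phosphorylation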 (primary screen)
Cells: Drosophila Kc167 cells
Knock-down reagent: long dsRNA against Drosophila genes, 250 ng dsRNA per well of a 384-well plate
Duration: 3 days of knock-down, then overnight serum-free starvation before stimulation
Conditions: bovine insulin at 387 nM for 10 minutes after 12 h without serum
Measurement: 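Per-well phospho-dAkt level from an in-cell fluorescent antibody stain, divided by a DNA-dye signal; log2 residuals turned into z-scores that take cell number into account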
Rule for the call: 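Under insulin, a gene counts as a hit if the average z-score of two replicates lies above 2.5 or below -2.5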
The screen tested about 23,000 reagents; below is a random part of those that have a named target and a result. Of all reagents, 98 (0.43%) are marked active. 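Only hit calls are given; the phospho-dAkt signals, z-scores and hit direction were not deposited.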 A plus sign joins genes that one reagent is predicted to hit.

gene knocked down | dsRNA | Outcome
Pus7 | DRSC10703 | inactive
f-cup | DRSC14139 | inactive
CG17404 | DRSC15234 | inactive
CG15236 | DRSC04970 | inactive
CG15236 | DRSC21396 | inactive
eIF2Balpha | DRSC16332 | inactive
Ir94g | DRSC15231 | inactive
Or67d | DRSC10158 | inactive
rst | DRSC17243 | inactive
rst | DRSC18828 | inactive
His3.3B | DRSC17773 | inactive
His3.3B | DRSC18673 | inactive
obst-G | DRSC11103 | inactive
CG3402 | DRSC08567 | inactive
MetRS | DRSC22533 | inactive
Cyp12c1 | DRSC11125 | inactive
CG11523 | DRSC11669 | inactive
CG13654 | DRSC14654 | inactive
zen | DRSC12632 | inactive
Aplip1 | DRSC07947 | inactive
Aplip1 | DRSC08697 | inactive
Aplip1 | DRSC21587 | inactive
l(2)05714 | DRSC03118 | inactive
CG33258 | DRSC09415 | inactive
Rab21 | DRSC20968 | inactive
CG34436 | DRSC15164 | inactive
Phb2 | DRSC06512 | inactive
mub | DRSC11896 | inactive
hmw | DRSC16277 | inactive
CG42272 | DRSC08766 | inactive
CG42272 | DRSC22502 | inactive
CG16820 | DRSC02522 | inactive
FER | DRSC12735 | inactive
FER | DRSC16673 | inactive
CG13170 | DRSC06298 | inactive
Cad88C | DRSC15486 | inactive
CG7910 | DRSC16341 | inactive
Ilp4 | DRSC10701 | inactive
Tnks | DRSC14154 | inactive
CG31928 | DRSC00293 | inactive
CG34288 | DRSC13564 | inactive
ect | DRSC10675 | inactive
ect | DRSC11343 | inactive
ect | DRSC22357 | inactive
CG15422 | DRSC00436 | inactive
Alg7 | DRSC02833 | inactive
Alg7 | DRSC02834 | inactive
mRpL48 | DRSC00506 | inactive
mRpL24 | DRSC03113 | inactive
ninaE | DRSC17014 | inactive
CG31244 | DRSC21589 | inactive
CG3330 | DRSC15477 | inactive
mol | DRSC01431 | inactive
mol | DRSC01912 | inactive
mol | DRSC02479 | inactive
Osi14 | DRSC12368 | inactive
ND-24L | DRSC10650 | inactive
CG10154 | DRSC09707 | inactive
hpo | DRSC06065 | inactive
betaNACtes2 | DRSC19792 | inactive
CG4325 | DRSC18516 | inactive
Wdr59 | DRSC02771 | inactive
PpY-55A | DRSC07513 | inactive
pkaap | DRSC01925 | inactive
Rab3-GAP | DRSC02001 | inactive
mat | DRSC08376 | inactive
mat | DRSC22841 | inactive
Ppi1 | DRSC15421 | inactive
Gli | DRSC03332 | inactive
CG12898 | DRSC06213 | inactive
CG2003 | DRSC15411 | inactive
CG12835 (retired record) | DRSC06181 | inactive
CG14990 | DRSC08449 | inactive
CG18537 | DRSC06764 | inactive
CG4892 | DRSC01937 | inactive
Set8 | DRSC15473 | inactive
Cyp4ac3 | DRSC03304 | inactive
Dnaaf4 | DRSC02405 | inactive
CG10343 | DRSC02041 | inactive
Cpr65Az | DRSC09882 | inactive
Cpr65Az | DRSC22057 | inactive
fok | DRSC02103 | inactive
Atf-2 | DRSC04130 | inactive
Atf-2 | DRSC04413 | inactive
CG31296 | DRSC13092 | inactive
CG15499 (retired record) | DRSC15041 | inactive
Cks85A | DRSC16562 | inactive
CG6738 | DRSC16104 | inactive
CG14323 | DRSC14802 | inactive
CG2129 | DRSC18209 | inactive
firl | DRSC02428 | inactive
CG13891 | DRSC08361 | inactive
Uhg2 + snoRNA:Me18S-G1620 + snoRNA:U14:30Ea | DRSC01100 | inactive
CG4730 | DRSC15633 | inactive
Dhc16F | DRSC20242 | inactive
CG15547 | DRSC15085 | inactive
CG5103 | DRSC10481 | inactive
CG8089 | DRSC07074 | inactive
Gapdh1 | DRSC07433 | inactive
Ankle2 | DRSC20105 | inactive
Ankle2 | DRSC20106 | inactive
CG12929 | DRSC06242 | inactive
rib | DRSC07021 | inactive
nvd | DRSC22139 | inactive
r + CG13012 | DRSC19531 | inactive
CG32718 | DRSC17538 | inactive
CG34316 | DRSC13080 | inactive
Asap | DRSC06493 | inactive
Asap | DRSC06830 | inactive
Act5C | DRSC17723 | inactive
CG7386 | DRSC10832 | inactive
CG33494 | DRSC13715 | inactive
Su(z)12 | DRSC11293 | inactive
Pfdn6 | DRSC10915 | inactive
stil | DRSC07699 | inactive
CG14220 | DRSC19577 | inactive
CG14443 | DRSC17936 | inactive
CG32834 | DRSC21929 | inactive
CG34452 | DRSC09387 | inactive
indra | DRSC08558 | inactive
sals | DRSC14925 | inactive
sals | DRSC16113 | inactive
Cpr49Ad | DRSC07284 | inactive
CR18275 | DRSC18151 | inactive
Clc | DRSC11116 | inactive
CG12923 | DRSC06237 | inactive
CG5122 | DRSC02816 | inactive
CAH13 | DRSC06128 | inactive
kumpel | DRSC14883 | inactive
kumpel | DRSC16459 | inactive
kumpel | DRSC16460 | inactive
kumpel | DRSC16461 | inactive
kumpel | DRSC16462 | inactive
kumpel | DRSC16463 | inactive
Rab39 | DRSC17827 | inactive
Pp2A-29B | DRSC03400 | inactive
CG31206 | DRSC13388 | inactive
CG5916 | DRSC15917 | inactive
CG3437 | DRSC10366 | inactive
Hr3 | DRSC06118 | inactive
Hr3 | DRSC07441 | inactive
CG3592 | DRSC18315 | inactive
CG6073 | DRSC15962 | inactive
CG6073 | DRSC22742 | inactive
halo | DRSC00705 | inactive
CG31270 (retired record) | DRSC22252 | inactive
BORCS6 | DRSC08514 | inactive
CG1492 | DRSC19605 | inactive
CG31522 | DRSC12005 | inactive
mTerf5 | DRSC16209 | inactive
Act42A | DRSC04835 | inactive
haf | DRSC00381 | inactive
HPS4 | DRSC06906 | inactive
Cyp28a5 | DRSC03297 | inactive
COX4L | DRSC04841 | inactive
Prosbeta2R2 | DRSC12193 | inactive
CG18789 | DRSC02696 | inactive

Not a retest: 19 of the entries above.
gene knocked down | dsRNA | Outcome
kumpel | DRSC16459 | inactive
kumpel | DRSC16460 | inactive
kumpel | DRSC16461 | inactive
kumpel | DRSC16462 | inactive
kumpel | DRSC16463 | inactive
Rab39 | DRSC17827 | inactive
Pp2A-29B | DRSC03400 | inactive
CG31206 | DRSC13388 | inactive
CG5916 | DRSC15917 | inactive
CG3437 | DRSC10366 | inactive
Hr3 | DRSC06118 | inactive
Hr3 | DRSC07441 | inactive
CG3592 | DRSC18315 | inactive
CG6073 | DRSC15962 | inactive
CG6073 | DRSC22742 | inactive
halo | DRSC00705 | inactive
CG31270 (retired record) | DRSC22252 | inactive
BORCS6 | DRSC08514 | inactive
CG1492 | DRSC19605 | inactive
